For data set [1], the target named is PDGF-AA (long form mature A-chain homodimer) (Homo sapiens) (UniProt P04085). Description: inhibition of the protein. The settings on record: no inhibition of 125I-PDGF-AA binding to alpha-receptor, data not shown, purified recombinant protein, protein details: R&D Systems, expressed in E. coli, carrier-free, single-stranded DNA, dose not given here.
The subject of data set [2] is thrombin (Homo sapiens). Description: binding assay. The settings on record: 3'-3' inverted T at nt 39; CITED; stated without experimental detail; single-stranded DNA.
Data set [3] concerns the target PDGF-BB (mature B-chain homodimer) (Homo sapiens) (UniProt P01127). Nature of the data set: inhibition of the protein. The note with it: 3'-3' inverted T at nt 39; no effect on receptor binding or mitogenesis; purified recombinant protein; protein details: R&D Systems, expressed in E. coli, carrier-free; single-stranded DNA; dose not given here.

Results on four sequences are retold here after patent publication US20030036642.

For some assays here: No signal at the amounts used counts as a negative. For some assays here: For at least one entry, the source does not settle the construct or the ends of the probe.

With “TACTCAGGGCACTGCAAGCAATTGTGGTCCCAATGGGCTGAGTAT [41t]”, the “functional effect of the aptamer” value in data set [1] (3'-3' inverted T at nt 45, variant of ligand 41 full length) was “not active”.

The sequence “CAGTCCGTGGTAGGGCAGGTTGGGGTGACTTCGTGGAAT [T39 thrombin ligand]” returned a dissociation constant (Kd) in data set [2] of 0.5 nM. In data set [3], the “functional effect of the aptamer” value is recorded as “not active”.

In the case of “TGGGAGGGCGCGTTCTTCGTGGTTACTTTTAGTCCCGT [20t]”, the “functional effect of the aptamer” value in data set [1] (3'-3' inverted T at nt 38, variant of ligand 20 full length) is “not active”.

As to “CACAGGCTACGGCACGTAGAGCATCACCATGATCCTGTGT [36t]”, in data set [1] (3'-3' inverted T at nt 40, variant of ligand 36 full length), the “functional effect of the aptamer” value is listed as “not active”.
